Experimental data as given in PMC1472246, “Structural Basis for a Munc13–1 Homodimer to Munc13–1/RIM Heterodimer Switch” (PLoS Biology, 2006).
Results are given in words; binding and its absence hold for the method and conditions named. Some entries that bind do so weakly or less than the wild type.

B1: Munc13–1(3–132) (domain or fragment, rat, UniProt Q62768 3-132, looked up)
chain: LLCVGVKKAKFDGAQEKFNTYVTLKVQNVKSTTIAVRGSQPSWEQDFMFEINRLDLGLTVEVWNKGLIWDTMVGTVWIPLRTIRQSNEEGPGEWLTLDSQAIMADSEICGTKDPTFHRILLDAHFELPLD
notes: Forms a homodimer (AUC); source: bacteria, GST fusion, purified (glutathione-Sepharose, GST cleaved, size-exclusion or ion-exchange chromatography)
B2: Munc13–1(3–209) (domain or fragment, rat, UniProt Q62768 3-209, looked up)
chain: LLCVGVKKAKFDGAQEKFNTYVTLKVQNVKSTTIAVRGSQPSWEQDFMFEINRLDLGLTVEVWNKGLIWDTMVGTVWIPLRTIRQSNEEGPGEWLTLDSQAIMADSEICGTKDPTFHRILLDAHFELPLDIPEEEARYWAKKLEQLNAMRDQDEYSFQDQQDKPLPVPSSQCCNWNYFGWGEQNDDPDSAVDDRDSDYRSETSNSIP
notes: Munc13-1, rat, residues 3-209; Forms a homodimer (AUC); 15N-labelled for NMR; source: bacteria, GST fusion, purified (glutathione-Sepharose, GST cleaved, size-exclusion or ion-exchange chromatography)

Key:
Munc13–1(3–132) (rat) = Munc13–1(3–132) (rat) (UniProt Q62768); assay: SEC; gel filtration, unpublished data (fragments and mutants not shown in Figures 1B and 4A); Superdex S75 or S200; 30 mM Tris-HCl, 150 mM NaCl, 1 mM TCEP, pH 7.4; both purified
Munc13–1(3–209) = target: B2; assay: as above

binding (Munc13–1(3–132) (rat))	binding (Munc13–1(3–209))	Binder
binds	–	B1
–	binds	B2
